Reference: PubChem BioAssay AID1224830 (NIAID, 2016)
Aim: 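Host factors that control LPS-induced TNF expression in human macrophages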 (primary screen). Cell system: human THP-1 monocytic leukaemia cells, TNF dual-luciferase reporter clone, PMA-differentiated to macrophage-like cells. Knock-down reagent: siRNA pool against human genes, 50 nM. Time to read-out: LPS for 4 h, given about 3 days after siRNA transfection. Treatment: bacterial LPS (TLR4 ligand), 10 ng/ml. Read-out: 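TNF firefly reporter luminescence divided by renilla, normalised to the plate median, then turned into a robust z-score for each replicate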. Direction: TNF reporter robust z-score: higher = stronger TNF reporter response to LPS. Hit rule: 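Each well counts as active if its z-score is over 2.8 or under -1.5; controls are left without a call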.
In all, the deposit lists about 18,000 reagents; this is a part drawn at random. Over the whole deposit, about 2,900 (16%) got an active call. 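Calls are made per well; low scores hint the gene aids the LPS response, high scores that it dampens it.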 Repeated entries: four replicate wells of each siRNA pool.

After knock-down of NDUFB8 the results were TNF reporter robust z-score 0.96; inactive.
After knock-down of NDUFB8 the results were TNF reporter robust z-score 0.07; inactive.
For NDUFB8 the deposit lists TNF reporter robust z-score -0.25; inactive.
NDUFB8 gave TNF reporter robust z-score -0.41; inactive.
CEP162 showed TNF reporter robust z-score 0; inactive.
For CEP162 the deposit lists TNF reporter robust z-score 0.06; inactive.
With knock-down of CEP162, the record shows TNF reporter robust z-score 0.18; inactive.
For CEP162 the deposit lists TNF reporter robust z-score -0.48; inactive.
Knock-down of TMEM70 came out at: TNF reporter robust z-score -0.08; inactive.
Knock-down of TMEM70 gave: TNF reporter robust z-score 0.91; inactive.
After knock-down of TMEM70 the results were TNF reporter robust z-score 0.74; inactive.
Knock-down of TMEM70 resulted in: TNF reporter robust z-score 0.53; inactive.
With knock-down of ZNF846, the screen gave TNF reporter robust z-score 0.36; inactive.
Depletion of ZNF846 resulted in: TNF reporter robust z-score -0.39; inactive.
Knock-down of ZNF846 came out at: TNF reporter robust z-score -0.67; inactive.
Depletion of ZNF846 resulted in: TNF reporter robust z-score -0.15; inactive.
After knock-down of NLRC3 the results were TNF reporter robust z-score -0.57; inactive.
For NLRC3, the entry reads TNF reporter robust z-score -0.06; inactive.
NLRC3 showed TNF reporter robust z-score -0.6; inactive.
For NLRC3, the values are TNF reporter robust z-score -0.55; inactive.
Against ATRX, the values are TNF reporter robust z-score -0.92; inactive.
ATRX scored TNF reporter robust z-score 0.16; inactive.
Knock-down of ATRX gave: TNF reporter robust z-score 0.39; inactive.
For ATRX, the values are TNF reporter robust z-score 1.37; inactive.
Knock-down of CPLX3 gave: TNF reporter robust z-score 1.05; inactive.
For CPLX3, the values are TNF reporter robust z-score 2.08; inactive.
With knock-down of CPLX3, the record shows TNF reporter robust z-score 2.45; inactive.
Knock-down of CPLX3 came out at: TNF reporter robust z-score 2.65; inactive.
Against APH1A, the values are TNF reporter robust z-score -0.45; inactive.
APH1A scored TNF reporter robust z-score -1.24; inactive.
Against APH1A the deposit lists TNF reporter robust z-score -1.79; active.
Silencing of APH1A came out at: TNF reporter robust z-score -1.36; inactive.
With knock-down of OR10V1, the record shows TNF reporter robust z-score -0.62; inactive.
OR10V1 scored TNF reporter robust z-score -0.46; inactive.
After knock-down of OR10V1 the results were TNF reporter robust z-score -0.86; inactive.
OR10V1 scored TNF reporter robust z-score -0.83; inactive.
After knock-down of NHS, the record shows TNF reporter robust z-score -0.29; inactive.
Depletion of NHS came out at: TNF reporter robust z-score -0.25; inactive.
For NHS, the values are TNF reporter robust z-score -0.06; inactive.
Against NHS the deposit lists TNF reporter robust z-score 0.16; inactive.
For BPY2B, the entry reads TNF reporter robust z-score -0.79; inactive.
With knock-down of BPY2B, the record shows TNF reporter robust z-score -0.56; inactive.
With knock-down of BPY2B, the record shows TNF reporter robust z-score -0.51; inactive.
Knock-down of BPY2B resulted in: TNF reporter robust z-score -0.4; inactive.
CYFIP1 showed TNF reporter robust z-score -0.2; inactive.
After knock-down of CYFIP1, the record shows TNF reporter robust z-score 2.13; inactive.
CYFIP1 showed TNF reporter robust z-score 0.47; inactive.
CYFIP1 scored TNF reporter robust z-score 0.53; inactive.
CPLX1 scored TNF reporter robust z-score 0.21; inactive.
With knock-down of CPLX1, the record shows TNF reporter robust z-score -0.08; inactive.
For CPLX1, the values are TNF reporter robust z-score -0.35; inactive.
CPLX1 showed TNF reporter robust z-score 0.32; inactive.
After knock-down of C8orf34 the results were TNF reporter robust z-score -1.01; inactive.
Silencing of C8orf34 gave: TNF reporter robust z-score -0.05; inactive.
C8orf34 scored TNF reporter robust z-score -0.86; inactive.
C8orf34 scored TNF reporter robust z-score -0.32; inactive.
After knock-down of FAM156A the results were TNF reporter robust z-score 0.86; inactive.
Silencing of FAM156A gave: TNF reporter robust z-score 1.18; inactive.
FAM156A scored TNF reporter robust z-score 0.36; inactive.
Against FAM156A, the entry reads TNF reporter robust z-score 1; inactive.

Called active, of those listed so far:
APH1A: TNF reporter robust z-score = -1.79; Call = active
